SMILES strings stand for the structures.

Consider one compound from patent publication US12643867B2, “Compositions and uses thereof” (University of Virginia Patent Foundation, priority 2017, dated 2026).

For the assay, the target named is T1, Alpha (DGK alpha; only in reference sheet cells) (Rattus norvegicus, UniProt P51556).
T1 sequence (P51556 1-727): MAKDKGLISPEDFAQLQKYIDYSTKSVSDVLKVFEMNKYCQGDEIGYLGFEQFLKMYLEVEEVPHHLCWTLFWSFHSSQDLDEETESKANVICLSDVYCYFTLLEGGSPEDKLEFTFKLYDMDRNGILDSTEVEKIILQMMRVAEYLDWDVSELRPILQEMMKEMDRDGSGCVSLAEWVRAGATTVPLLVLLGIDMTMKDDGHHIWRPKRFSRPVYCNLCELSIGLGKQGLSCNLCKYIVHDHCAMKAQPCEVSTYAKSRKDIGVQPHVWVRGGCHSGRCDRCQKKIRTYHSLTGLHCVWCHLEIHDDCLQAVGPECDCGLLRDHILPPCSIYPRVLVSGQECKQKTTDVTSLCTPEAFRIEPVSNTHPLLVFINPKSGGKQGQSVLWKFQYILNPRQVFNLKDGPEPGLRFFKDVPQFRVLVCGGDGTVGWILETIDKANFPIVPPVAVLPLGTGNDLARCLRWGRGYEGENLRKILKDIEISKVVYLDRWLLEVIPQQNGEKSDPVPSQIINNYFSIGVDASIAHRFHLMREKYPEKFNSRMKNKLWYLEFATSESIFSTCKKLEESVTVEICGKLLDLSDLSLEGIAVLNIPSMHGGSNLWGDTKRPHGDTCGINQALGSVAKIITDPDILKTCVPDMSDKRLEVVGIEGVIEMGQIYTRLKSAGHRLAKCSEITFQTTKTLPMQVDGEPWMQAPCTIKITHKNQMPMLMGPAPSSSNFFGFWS
Put plainly: DGK isoform % Activity screen. It is filed as biochemical.

For the compound `CN1C2CCC1CC(OC(c1ccccc1)c1ccccc1)C2` (centres unmarked) [TH004], the activity at 100 µM (read-out: 100 uM % Activity (section without isoform head; Alpha)) was found to be 93%. For the same compound, the activity at 1000 µM (read-out: 1 mM % Activity (section without isoform head; Alpha)) was 1%.
